Laboratory results as given in patent US9283241B2, “Treatment to render implants resistant to diabetes” (Clemson University, priority 2012, dated 2016).
For at least one compound, name, drawing or mass did not settle the structure.

Assays:
Format in all cases: in vivo, Sprague-Dawley rats
host cell infiltration = assay: H&E staining for host cell infiltration; settings: collagen and elastin scaffolds
T-lymphocytes = assay: Immunohistochemical staining for CD8 (T-lymphocytes); settings: collagen and elastin scaffolds
[1] = Movat's Pentachrome staining for ECM remodeling; settings: collagen and elastin scaffolds, control and diabetic environments
[2] = Alizarin Red staining / calcium assay for calcification; settings: elastin scaffolds, control or diabetic environment
M2 phenotype macrophages = assay: Immunohistochemical staining for CD168 (M2 phenotype macrophages); settings: collagen scaffolds treated with PGG, diabetic and control environments
TNF-alpha = assay: ELISA for TNF-alpha in explanted scaffolds; settings: collagen and elastin scaffolds treated with PGG, compared to non-treated

O=C(OC[C@H]1O[C@@H](OC(=O)c2cc(O)c(O)c(O)c2)[C@H](OC(=O)c2cc(O)c(O)c(O)c2)[C@@H](OC(=O)c2cc(O)c(O)c(O)c2)[C@@H]1OC(=O)c1cc(O)c(O)c(O)c1)c1cc(O)c(O)c(O)c1 [PGG, pentagalloyl glucose]
cellular infiltration (H&E) (host cell infiltration): slightly reduced, but did not inhibit | T-lymphocyte infiltration (CD8 staining) (T-lymphocytes): appeared to discourage T-lymphocyte infiltration, although it was not completely inhibited | structural integrity of the scaffolds (Movat's Pentachrome) [1]: preserved the structural integrity | calcification (Alizarin Red) [2]: no calcification | M2 phenotype macrophages (CD168 staining) (M2 phenotype macrophages): presence of M2 phenotype macrophages | TNF-alpha (TNF-alpha): lower amounts of TNF-alpha
